This note sets out measurements from the supplement of paper PMC12595434, “Development of retinoid nuclear receptor pathway antagonists through targeting aldehyde dehydrogenase 1A3” (iScience, 2025).

Sequences of proteins named here, by UniProt entry; tags and fusion partners are left off. A change or cut given only in a name is not applied to a line headed by its entry.
UniProt P18433: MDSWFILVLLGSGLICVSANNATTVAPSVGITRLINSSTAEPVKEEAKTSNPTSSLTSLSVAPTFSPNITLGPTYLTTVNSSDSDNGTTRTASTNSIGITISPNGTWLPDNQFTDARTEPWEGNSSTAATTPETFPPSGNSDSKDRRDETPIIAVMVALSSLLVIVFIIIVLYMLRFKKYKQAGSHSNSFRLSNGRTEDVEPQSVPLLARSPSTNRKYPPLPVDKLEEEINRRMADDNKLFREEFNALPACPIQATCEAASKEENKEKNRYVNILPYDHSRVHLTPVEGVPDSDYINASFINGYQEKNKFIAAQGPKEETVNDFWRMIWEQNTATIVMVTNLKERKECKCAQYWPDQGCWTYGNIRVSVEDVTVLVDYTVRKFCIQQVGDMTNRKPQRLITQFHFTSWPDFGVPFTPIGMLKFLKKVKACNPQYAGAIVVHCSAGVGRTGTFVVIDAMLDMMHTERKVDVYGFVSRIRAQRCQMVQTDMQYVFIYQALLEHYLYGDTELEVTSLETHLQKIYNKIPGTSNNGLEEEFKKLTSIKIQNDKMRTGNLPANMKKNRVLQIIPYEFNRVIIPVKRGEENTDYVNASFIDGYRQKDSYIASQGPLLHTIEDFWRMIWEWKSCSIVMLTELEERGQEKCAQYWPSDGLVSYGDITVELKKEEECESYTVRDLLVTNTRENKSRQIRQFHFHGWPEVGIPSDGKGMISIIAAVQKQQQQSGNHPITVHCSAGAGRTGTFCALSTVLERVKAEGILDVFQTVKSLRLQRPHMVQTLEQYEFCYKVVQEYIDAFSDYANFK
UniProt P20336: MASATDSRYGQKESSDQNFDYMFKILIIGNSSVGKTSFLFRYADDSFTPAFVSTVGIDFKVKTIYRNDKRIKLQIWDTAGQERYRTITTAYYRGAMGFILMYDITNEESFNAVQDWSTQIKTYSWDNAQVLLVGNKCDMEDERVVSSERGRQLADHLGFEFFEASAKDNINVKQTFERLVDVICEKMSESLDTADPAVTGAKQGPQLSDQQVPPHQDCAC
UniProt P07814: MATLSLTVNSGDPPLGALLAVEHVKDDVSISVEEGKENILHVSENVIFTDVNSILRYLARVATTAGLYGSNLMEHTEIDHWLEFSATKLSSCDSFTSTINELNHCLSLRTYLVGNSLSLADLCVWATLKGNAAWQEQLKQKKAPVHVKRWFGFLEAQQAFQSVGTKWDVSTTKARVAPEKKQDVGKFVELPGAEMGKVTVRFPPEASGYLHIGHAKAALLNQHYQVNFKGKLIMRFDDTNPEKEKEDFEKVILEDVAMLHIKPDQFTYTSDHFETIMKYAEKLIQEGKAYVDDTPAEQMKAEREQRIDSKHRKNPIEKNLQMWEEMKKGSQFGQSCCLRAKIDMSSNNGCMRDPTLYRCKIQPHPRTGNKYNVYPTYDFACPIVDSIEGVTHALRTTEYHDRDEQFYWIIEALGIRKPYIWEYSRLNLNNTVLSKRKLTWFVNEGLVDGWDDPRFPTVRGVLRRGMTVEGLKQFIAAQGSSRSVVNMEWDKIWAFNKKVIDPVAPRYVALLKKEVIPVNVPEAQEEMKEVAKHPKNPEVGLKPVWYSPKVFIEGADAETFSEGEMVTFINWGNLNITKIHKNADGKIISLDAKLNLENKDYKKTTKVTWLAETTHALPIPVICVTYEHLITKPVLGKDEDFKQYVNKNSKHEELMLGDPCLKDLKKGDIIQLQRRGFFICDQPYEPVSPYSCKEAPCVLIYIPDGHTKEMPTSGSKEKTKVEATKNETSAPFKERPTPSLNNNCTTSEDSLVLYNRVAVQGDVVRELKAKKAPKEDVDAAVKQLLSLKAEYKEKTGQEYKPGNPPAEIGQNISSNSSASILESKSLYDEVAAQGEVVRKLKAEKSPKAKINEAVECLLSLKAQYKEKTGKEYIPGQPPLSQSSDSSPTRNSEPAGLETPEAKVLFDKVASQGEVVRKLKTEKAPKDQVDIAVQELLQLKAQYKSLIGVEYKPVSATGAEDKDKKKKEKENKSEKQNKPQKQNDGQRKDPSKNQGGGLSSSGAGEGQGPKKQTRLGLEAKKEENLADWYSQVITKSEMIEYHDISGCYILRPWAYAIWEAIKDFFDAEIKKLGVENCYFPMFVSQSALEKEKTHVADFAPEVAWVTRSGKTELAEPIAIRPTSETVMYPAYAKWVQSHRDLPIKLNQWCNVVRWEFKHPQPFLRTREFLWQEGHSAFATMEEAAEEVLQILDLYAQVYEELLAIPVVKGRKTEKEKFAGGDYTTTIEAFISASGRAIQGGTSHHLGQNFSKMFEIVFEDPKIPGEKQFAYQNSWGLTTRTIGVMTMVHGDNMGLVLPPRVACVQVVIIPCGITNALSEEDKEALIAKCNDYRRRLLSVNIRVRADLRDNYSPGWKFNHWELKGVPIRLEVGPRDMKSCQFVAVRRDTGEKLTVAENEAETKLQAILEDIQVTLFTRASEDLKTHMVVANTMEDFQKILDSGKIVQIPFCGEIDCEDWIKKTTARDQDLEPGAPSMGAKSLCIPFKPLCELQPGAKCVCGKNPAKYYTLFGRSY
UniProt P20338: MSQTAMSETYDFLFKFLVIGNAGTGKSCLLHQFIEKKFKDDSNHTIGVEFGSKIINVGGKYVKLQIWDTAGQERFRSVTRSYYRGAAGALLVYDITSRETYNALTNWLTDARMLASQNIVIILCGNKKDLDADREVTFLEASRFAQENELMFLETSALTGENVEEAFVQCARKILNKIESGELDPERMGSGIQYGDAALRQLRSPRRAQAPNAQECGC
UniProt P17050: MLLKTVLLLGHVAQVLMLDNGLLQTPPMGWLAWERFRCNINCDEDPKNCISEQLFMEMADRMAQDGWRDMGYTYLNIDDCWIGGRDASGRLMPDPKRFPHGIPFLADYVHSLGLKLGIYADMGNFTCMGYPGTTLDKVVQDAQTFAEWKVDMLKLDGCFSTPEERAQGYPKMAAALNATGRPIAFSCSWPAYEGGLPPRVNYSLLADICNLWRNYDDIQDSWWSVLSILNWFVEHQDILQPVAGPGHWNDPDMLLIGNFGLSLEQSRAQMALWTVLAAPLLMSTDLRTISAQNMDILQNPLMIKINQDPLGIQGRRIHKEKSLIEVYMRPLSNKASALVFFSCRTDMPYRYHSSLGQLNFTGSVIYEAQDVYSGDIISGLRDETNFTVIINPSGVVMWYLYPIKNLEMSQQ
UniProt P14927: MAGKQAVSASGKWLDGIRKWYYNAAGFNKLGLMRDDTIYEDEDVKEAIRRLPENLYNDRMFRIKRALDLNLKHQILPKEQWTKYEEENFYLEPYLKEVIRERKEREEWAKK
UniProt P18887, whole entry: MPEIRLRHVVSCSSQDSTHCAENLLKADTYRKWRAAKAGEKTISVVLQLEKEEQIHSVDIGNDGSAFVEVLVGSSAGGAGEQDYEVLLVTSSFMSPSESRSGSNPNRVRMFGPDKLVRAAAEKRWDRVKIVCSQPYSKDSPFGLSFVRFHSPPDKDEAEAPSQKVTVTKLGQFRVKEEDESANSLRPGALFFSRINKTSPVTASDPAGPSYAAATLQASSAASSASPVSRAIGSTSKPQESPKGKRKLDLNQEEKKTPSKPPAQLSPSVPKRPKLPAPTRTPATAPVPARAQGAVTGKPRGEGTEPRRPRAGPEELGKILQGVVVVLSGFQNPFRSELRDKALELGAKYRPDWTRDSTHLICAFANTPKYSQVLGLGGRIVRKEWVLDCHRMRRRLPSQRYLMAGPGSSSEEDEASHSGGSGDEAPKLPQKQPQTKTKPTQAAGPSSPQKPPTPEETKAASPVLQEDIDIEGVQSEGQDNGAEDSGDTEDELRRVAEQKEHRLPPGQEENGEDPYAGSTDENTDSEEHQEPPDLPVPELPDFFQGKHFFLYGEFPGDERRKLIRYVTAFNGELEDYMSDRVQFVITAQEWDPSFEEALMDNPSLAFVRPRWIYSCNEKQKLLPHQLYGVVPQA
UniProt P13164, whole entry: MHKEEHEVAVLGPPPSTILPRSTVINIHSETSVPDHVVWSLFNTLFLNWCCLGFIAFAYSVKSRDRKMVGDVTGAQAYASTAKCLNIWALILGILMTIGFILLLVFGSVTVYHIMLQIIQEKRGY
UniProt P11766: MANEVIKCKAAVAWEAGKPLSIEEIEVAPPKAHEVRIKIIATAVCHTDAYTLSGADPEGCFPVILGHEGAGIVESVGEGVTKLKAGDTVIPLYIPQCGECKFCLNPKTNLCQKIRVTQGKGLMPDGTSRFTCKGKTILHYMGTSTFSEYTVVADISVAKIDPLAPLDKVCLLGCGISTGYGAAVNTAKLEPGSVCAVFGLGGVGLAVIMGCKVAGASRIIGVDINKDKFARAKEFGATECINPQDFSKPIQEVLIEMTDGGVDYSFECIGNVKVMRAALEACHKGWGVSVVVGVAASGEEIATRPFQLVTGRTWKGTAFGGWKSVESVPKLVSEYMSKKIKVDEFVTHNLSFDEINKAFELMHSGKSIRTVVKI
UniProt P19447: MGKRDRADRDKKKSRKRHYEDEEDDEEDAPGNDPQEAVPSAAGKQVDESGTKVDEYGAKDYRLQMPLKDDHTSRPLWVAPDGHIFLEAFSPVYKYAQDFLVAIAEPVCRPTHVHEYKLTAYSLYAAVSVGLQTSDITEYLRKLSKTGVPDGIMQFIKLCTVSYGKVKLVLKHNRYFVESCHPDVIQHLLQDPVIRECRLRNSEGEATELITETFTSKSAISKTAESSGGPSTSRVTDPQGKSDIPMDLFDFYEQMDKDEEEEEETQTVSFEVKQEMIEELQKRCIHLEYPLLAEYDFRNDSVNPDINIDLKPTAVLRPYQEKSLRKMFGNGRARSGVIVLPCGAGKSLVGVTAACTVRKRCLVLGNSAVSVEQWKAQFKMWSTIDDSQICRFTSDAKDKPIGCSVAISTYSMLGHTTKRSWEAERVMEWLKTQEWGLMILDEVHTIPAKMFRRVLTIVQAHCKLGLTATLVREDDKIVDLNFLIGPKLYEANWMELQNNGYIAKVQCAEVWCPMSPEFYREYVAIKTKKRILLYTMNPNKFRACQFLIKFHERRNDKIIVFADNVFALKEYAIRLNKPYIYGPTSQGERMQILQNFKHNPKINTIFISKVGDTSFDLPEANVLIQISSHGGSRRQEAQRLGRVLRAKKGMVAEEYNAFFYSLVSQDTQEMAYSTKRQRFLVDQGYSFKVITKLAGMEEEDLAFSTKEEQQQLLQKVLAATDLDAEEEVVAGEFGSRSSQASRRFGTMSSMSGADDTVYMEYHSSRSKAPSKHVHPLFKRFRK
UniProt P14314: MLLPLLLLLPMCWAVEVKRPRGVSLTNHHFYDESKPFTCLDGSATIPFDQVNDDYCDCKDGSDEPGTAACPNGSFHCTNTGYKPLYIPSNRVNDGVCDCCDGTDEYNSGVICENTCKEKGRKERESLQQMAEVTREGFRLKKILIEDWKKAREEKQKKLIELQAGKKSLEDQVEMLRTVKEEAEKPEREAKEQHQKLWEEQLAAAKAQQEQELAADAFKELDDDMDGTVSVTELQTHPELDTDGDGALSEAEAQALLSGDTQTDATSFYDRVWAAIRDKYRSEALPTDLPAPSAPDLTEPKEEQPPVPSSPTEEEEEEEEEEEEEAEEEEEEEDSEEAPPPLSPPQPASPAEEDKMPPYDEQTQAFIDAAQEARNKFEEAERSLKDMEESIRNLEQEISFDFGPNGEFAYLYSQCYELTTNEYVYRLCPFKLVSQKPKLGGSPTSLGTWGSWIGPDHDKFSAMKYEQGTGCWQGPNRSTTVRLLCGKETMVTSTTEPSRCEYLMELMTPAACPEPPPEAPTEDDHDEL
UniProt P16260: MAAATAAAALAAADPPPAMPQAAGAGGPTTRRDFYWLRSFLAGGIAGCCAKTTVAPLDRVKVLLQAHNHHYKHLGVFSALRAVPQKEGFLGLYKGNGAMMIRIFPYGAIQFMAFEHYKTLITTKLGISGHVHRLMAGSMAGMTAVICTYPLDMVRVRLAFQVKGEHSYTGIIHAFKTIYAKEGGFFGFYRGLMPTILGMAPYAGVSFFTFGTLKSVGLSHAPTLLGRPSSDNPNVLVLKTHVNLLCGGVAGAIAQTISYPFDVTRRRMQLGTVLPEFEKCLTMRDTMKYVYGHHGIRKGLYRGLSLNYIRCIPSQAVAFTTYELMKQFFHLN
UniProt P19525: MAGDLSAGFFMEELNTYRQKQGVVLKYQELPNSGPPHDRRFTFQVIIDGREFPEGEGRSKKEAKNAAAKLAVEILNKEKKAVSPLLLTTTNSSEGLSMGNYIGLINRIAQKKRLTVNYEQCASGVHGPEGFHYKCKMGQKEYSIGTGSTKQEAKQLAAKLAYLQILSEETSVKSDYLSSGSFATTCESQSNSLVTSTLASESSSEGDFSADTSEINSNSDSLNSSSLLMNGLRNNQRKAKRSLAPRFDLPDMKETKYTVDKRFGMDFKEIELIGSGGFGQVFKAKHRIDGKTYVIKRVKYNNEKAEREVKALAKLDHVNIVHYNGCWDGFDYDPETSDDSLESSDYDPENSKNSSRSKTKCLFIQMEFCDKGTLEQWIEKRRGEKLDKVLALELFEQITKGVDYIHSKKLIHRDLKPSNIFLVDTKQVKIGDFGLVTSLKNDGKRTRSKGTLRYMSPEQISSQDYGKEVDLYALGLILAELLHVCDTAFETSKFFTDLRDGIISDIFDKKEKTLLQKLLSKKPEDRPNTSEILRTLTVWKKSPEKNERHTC

Compound in this experiment: CCc1cnccc1C(=O)Nc1cc2c(cc1F)NC(=O)CC2
Description: melting temperature shift (DMSO Tm minus MBE1-treated Tm) in cellular thermal proteome profiling; higher = less thermal stabilization by MBE1 (negative = stabilized by MBE1). The following applies: A375.

This is one part of the list. The data scatter; read single values as rough.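 Tm was set to 64 °C where no melting was found, and many curves are irregular.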

NDUFB7 (UniProt P17568): the melting temperature shift is, setting by setting: (MBE1 concentration: 100 nM) -1.09 °C; (MBE1 concentration: 1 uM) -0.335 °C.
For the target COX6B1 (UniProt P14854), the melting temperature shift (MBE1 concentration: 100 nM) was -1.29 °C and the melting temperature shift (MBE1 concentration: 1 uM) was -0.765 °C.
With GAA (UniProt P10253), the melting temperature shift is -3.48 °C (MBE1 concentration: 100 nM) and -3.02 °C (MBE1 concentration: 1 uM).
In the case of CTSA (UniProt P10619), the melting temperature shift by setting is: (MBE1 concentration: 100 nM) -1.07 °C; (MBE1 concentration: 1 uM) -1.08 °C.
On to GCFC2 (UniProt P16383), for which the melting temperature shift (MBE1 concentration: 100 nM) was -0.279 °C and the melting temperature shift (MBE1 concentration: 1 uM) was -0.48 °C.
UniProt P12694: the melting temperature shift is 0.134 °C (MBE1 concentration: 100 nM) and 0.592 °C (MBE1 concentration: 1 uM).
For the target UniProt P15336, the melting temperature shift was -1.47 °C (MBE1 concentration: 100 nM) and 1.25 °C (MBE1 concentration: 1 uM).
Consider CAPN1 (UniProt P07384), for which the melting temperature shift by setting is: (MBE1 concentration: 100 nM) -1.51 °C; (MBE1 concentration: 1 uM) -0.36 °C.
Taken in the same sequence, the figures for PYGB (UniProt P11216) were -0.221 °C and -0.268 °C.
Consider UniProt P18433, for which the melting temperature shift reads like this: (MBE1 concentration: 100 nM) 0.543 °C; (MBE1 concentration: 1 uM) 0.324 °C.
Consider UniProt P20337, for which the melting temperature shift runs as follows: (MBE1 concentration: 100 nM) -1.74 °C; (MBE1 concentration: 1 uM) -1.02 °C.
As for IMPDH2 (UniProt P12268), the melting temperature shift is, setting by setting: (MBE1 concentration: 100 nM) -0.0604 °C; (MBE1 concentration: 1 uM) 0.303 °C.
For the target ZNF24 (UniProt P17028), the melting temperature shift runs as follows: (MBE1 concentration: 100 nM) 0.483 °C; (MBE1 concentration: 1 uM) -1.18 °C.
As to ANXA7 (UniProt P20073), the melting temperature shift reads like this: (MBE1 concentration: 100 nM) 0.116 °C; (MBE1 concentration: 1 uM) -0.104 °C.
In the same order, the values of UniProt P0C1Z6 are 0.179 °C and -1.58 °C.
UniProt P0DN76: the melting temperature shift runs as follows: (MBE1 concentration: 100 nM) -0.39 °C; (MBE1 concentration: 1 uM) -0.118 °C.
On to POLR2E (UniProt P19388), for which the melting temperature shift was -0.122 °C (MBE1 concentration: 100 nM) and 0.193 °C (MBE1 concentration: 1 uM).
LTA4H (UniProt P09960): the melting temperature shift reads like this: (MBE1 concentration: 100 nM) -1.05 °C; (MBE1 concentration: 1 uM) -0.529 °C.
Turning to UniProt P20336, the melting temperature shift by setting is: (MBE1 concentration: 100 nM) -1.54 °C; (MBE1 concentration: 1 uM) -1.26 °C.
Taken in the same sequence, the figures for POLR2C (UniProt P19387) were 0.055 °C and -0.183 °C.
For the target EPRS (UniProt P07814), the melting temperature shift is, setting by setting: (MBE1 concentration: 100 nM) -0.616 °C; (MBE1 concentration: 1 uM) -0.0423 °C.
As to RAB4A (UniProt P20338), the melting temperature shift runs as follows: (MBE1 concentration: 100 nM) -0.261 °C; (MBE1 concentration: 1 uM) 0.165 °C.
On to DBT (UniProt P11182), for which the melting temperature shift by setting is: (MBE1 concentration: 100 nM) 0.194 °C; (MBE1 concentration: 1 uM) 0.305 °C.
BCR (UniProt P11274): the melting temperature shift reads like this: (MBE1 concentration: 100 nM) 0.861 °C; (MBE1 concentration: 1 uM) 0.238 °C.
In the same order, the values of RCC1 (UniProt P18754) are -0.528 °C and 0.448 °C.
NAGA (UniProt P17050): the melting temperature shift (MBE1 concentration: 100 nM) was -1.37 °C and the melting temperature shift (MBE1 concentration: 1 uM) was -2.52 °C.
For ANXA6 (UniProt P08133), the melting temperature shift (MBE1 concentration: 100 nM) came to 0.8 °C and the melting temperature shift (MBE1 concentration: 1 uM) was determined as 0.263 °C.
Regarding ACADM (UniProt P11310), the melting temperature shift by setting is: (MBE1 concentration: 100 nM) -0.788 °C; (MBE1 concentration: 1 uM) -0.416 °C.
With FER (UniProt P16591), the melting temperature shift (MBE1 concentration: 100 nM) is -0.993 °C and the melting temperature shift (MBE1 concentration: 1 uM) amounted to 0.288 °C.
Taken in the same sequence, the figures for PHKG2 (UniProt P15735) were -0.829 °C and 0.495 °C.
Regarding HMOX1 (UniProt P09601), the melting temperature shift was -0.181 °C (MBE1 concentration: 100 nM) and 0.0604 °C (MBE1 concentration: 1 uM).
SRM (UniProt P19623): the melting temperature shift reads like this: (MBE1 concentration: 100 nM) 0.641 °C; (MBE1 concentration: 1 uM) 0.14 °C.
Take UQCRB (UniProt P14927): the melting temperature shift is, setting by setting: (MBE1 concentration: 100 nM) -1.36 °C; (MBE1 concentration: 1 uM) -1.76 °C.
In the same order, the values of XRCC1 (UniProt P18887) are -0.154 °C and -0.327 °C.
For the target RALB (UniProt P11234), the melting temperature shift runs as follows: (MBE1 concentration: 100 nM) -1.78 °C; (MBE1 concentration: 1 uM) -0.307 °C.
With HMGB1 (UniProt P09429), the melting temperature shift (MBE1 concentration: 100 nM) is -0.862 °C and the melting temperature shift (MBE1 concentration: 1 uM) worked out at 0.00731 °C.
In the same order, the values of GYS1 (UniProt P13807) are -0.538 °C and 1.01 °C.
Taken in the same sequence, the figures for SLC9A1 (UniProt P19634) were -0.972 °C and 0.0794 °C.
Taken in the same sequence, the figures for UniProt P13164 were -2.17 °C and 0.569 °C.
As for JUP (UniProt P14923), the melting temperature shift (MBE1 concentration: 100 nM) is -1.31 °C and the melting temperature shift (MBE1 concentration: 1 uM) came to 2.21 °C.
With GNAI3 (UniProt P08754), the melting temperature shift (MBE1 concentration: 100 nM) is -0.651 °C and the melting temperature shift (MBE1 concentration: 1 uM) is -0.53 °C.
Regarding UniProt P14543, the melting temperature shift was -0.449 °C (MBE1 concentration: 100 nM) and -0.128 °C (MBE1 concentration: 1 uM).
Turning to IFIT1 (UniProt P09914), the melting temperature shift was -0.434 °C (MBE1 concentration: 100 nM) and -0.44 °C (MBE1 concentration: 1 uM).
Consider ADH5 (UniProt P11766), for which the melting temperature shift reads like this: (MBE1 concentration: 100 nM) -0.374 °C; (MBE1 concentration: 1 uM) -1.49 °C.
Consider RPSA (UniProt P08865), for which the melting temperature shift was -0.598 °C (MBE1 concentration: 100 nM) and 1.62 °C (MBE1 concentration: 1 uM).
In the case of HARS (UniProt P12081), the melting temperature shift reads like this: (MBE1 concentration: 100 nM) -0.899 °C; (MBE1 concentration: 1 uM) -0.201 °C.
Consider UniProt P14406, for which the melting temperature shift (MBE1 concentration: 100 nM) is -2.68 °C and the melting temperature shift (MBE1 concentration: 1 uM) is -3.91 °C.
MTHFD2 (UniProt P13995): the melting temperature shift by setting is: (MBE1 concentration: 100 nM) -0.436 °C; (MBE1 concentration: 1 uM) 0.999 °C.
Take P0DMU7 (UniProt P0DMU8): the melting temperature shift is, setting by setting: (MBE1 concentration: 100 nM) -1.13 °C; (MBE1 concentration: 1 uM) -3.07 °C.
Turning to LGALS3 (UniProt P17931), the melting temperature shift by setting is: (MBE1 concentration: 100 nM) 0.255 °C; (MBE1 concentration: 1 uM) -0.288 °C.
With UniProt P18583, the melting temperature shift is, setting by setting: (MBE1 concentration: 100 nM) -0.846 °C; (MBE1 concentration: 1 uM) -0.519 °C.
As for MET (UniProt P08581), the melting temperature shift was 0.788 °C (MBE1 concentration: 100 nM) and -0.574 °C (MBE1 concentration: 1 uM).
Regarding GTF2F2 (UniProt P13984), the melting temperature shift was -0.275 °C (MBE1 concentration: 100 nM) and 0.496 °C (MBE1 concentration: 1 uM).
In the same order, the values of ERCC3 (UniProt P19447) are -0.794 °C and -0.666 °C.
In the case of ESD (UniProt P10768), the melting temperature shift runs as follows: (MBE1 concentration: 100 nM) -0.318 °C; (MBE1 concentration: 1 uM) -0.16 °C.
On to P4HA1 (UniProt P13674), for which the melting temperature shift (MBE1 concentration: 100 nM) was -1.16 °C and the melting temperature shift (MBE1 concentration: 1 uM) came out at 0.361 °C.
On to UniProt P17405, for which the melting temperature shift is, setting by setting: (MBE1 concentration: 100 nM) 1 °C; (MBE1 concentration: 1 uM) 0.61 °C.
As to PRKCSH (UniProt P14314), the melting temperature shift is, setting by setting: (MBE1 concentration: 100 nM) -6.39 °C; (MBE1 concentration: 1 uM) -5.84 °C.
Taken in the same sequence, the figures for VCL (UniProt P18206) were -1.36 °C and -1.56 °C.
For UniProt P0DN79, the melting temperature shift (MBE1 concentration: 100 nM) was -0.269 °C and the melting temperature shift (MBE1 concentration: 1 uM) was 0.366 °C.
In the case of UniProt P16260, the melting temperature shift was -2.09 °C (MBE1 concentration: 100 nM) and 2.21 °C (MBE1 concentration: 1 uM).
UniProt P19525: the melting temperature shift was -0.847 °C (MBE1 concentration: 100 nM) and -0.288 °C (MBE1 concentration: 1 uM).
Taken in the same sequence, the figures for PPP3CB (UniProt P16298) were -1.55 °C and 0.107 °C.
With SP1 (UniProt P08047), the melting temperature shift reads like this: (MBE1 concentration: 100 nM) -1.18 °C; (MBE1 concentration: 1 uM) 0.128 °C.
Consider PRKAR2A (UniProt P13861), for which the melting temperature shift reads like this: (MBE1 concentration: 100 nM) -0.512 °C; (MBE1 concentration: 1 uM) 0.104 °C.
Taken in the same sequence, the figures for UniProt P19784 were -0.665 °C and 0.972 °C.
As for PDIA4 (UniProt P13667), the melting temperature shift (MBE1 concentration: 100 nM) was -1.01 °C and the melting temperature shift (MBE1 concentration: 1 uM) is -0.0872 °C.
